Measured values published in publication PMC8151980.
No constants are given. Whether binding was seen depends on the method and setting. Binding seen in cells or lysates may run through a third protein. Some entries that bind do so weakly or less than the wild type. Sequences can lack the tags named with a protein.

By UniProt entry, the sequences of proteins in these tests, tags left out. Residues count along the entry.
UniProt Q9FI56, residues 39-929: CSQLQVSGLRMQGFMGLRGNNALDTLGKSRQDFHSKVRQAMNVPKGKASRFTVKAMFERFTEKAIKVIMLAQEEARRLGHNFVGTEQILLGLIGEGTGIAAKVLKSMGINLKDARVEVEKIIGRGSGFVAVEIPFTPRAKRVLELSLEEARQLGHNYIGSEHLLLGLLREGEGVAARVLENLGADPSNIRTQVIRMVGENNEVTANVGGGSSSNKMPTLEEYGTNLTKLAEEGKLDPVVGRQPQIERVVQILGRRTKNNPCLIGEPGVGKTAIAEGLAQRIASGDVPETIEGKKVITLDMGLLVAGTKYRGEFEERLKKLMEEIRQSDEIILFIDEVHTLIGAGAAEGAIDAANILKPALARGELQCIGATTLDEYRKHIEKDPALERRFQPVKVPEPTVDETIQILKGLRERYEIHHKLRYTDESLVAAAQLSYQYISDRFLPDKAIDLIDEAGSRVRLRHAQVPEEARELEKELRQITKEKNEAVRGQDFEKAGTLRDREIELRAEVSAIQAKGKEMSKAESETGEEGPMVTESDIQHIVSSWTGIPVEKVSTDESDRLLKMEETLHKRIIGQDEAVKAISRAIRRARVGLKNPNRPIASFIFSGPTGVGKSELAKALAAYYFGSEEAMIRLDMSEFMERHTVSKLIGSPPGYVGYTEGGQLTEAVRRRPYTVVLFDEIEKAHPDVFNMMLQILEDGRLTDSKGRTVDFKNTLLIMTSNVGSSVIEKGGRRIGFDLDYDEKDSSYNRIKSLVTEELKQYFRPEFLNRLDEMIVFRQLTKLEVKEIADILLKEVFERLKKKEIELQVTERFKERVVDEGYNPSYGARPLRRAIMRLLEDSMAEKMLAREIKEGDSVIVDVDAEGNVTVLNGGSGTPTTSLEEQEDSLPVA
UniProt Q9LUS2: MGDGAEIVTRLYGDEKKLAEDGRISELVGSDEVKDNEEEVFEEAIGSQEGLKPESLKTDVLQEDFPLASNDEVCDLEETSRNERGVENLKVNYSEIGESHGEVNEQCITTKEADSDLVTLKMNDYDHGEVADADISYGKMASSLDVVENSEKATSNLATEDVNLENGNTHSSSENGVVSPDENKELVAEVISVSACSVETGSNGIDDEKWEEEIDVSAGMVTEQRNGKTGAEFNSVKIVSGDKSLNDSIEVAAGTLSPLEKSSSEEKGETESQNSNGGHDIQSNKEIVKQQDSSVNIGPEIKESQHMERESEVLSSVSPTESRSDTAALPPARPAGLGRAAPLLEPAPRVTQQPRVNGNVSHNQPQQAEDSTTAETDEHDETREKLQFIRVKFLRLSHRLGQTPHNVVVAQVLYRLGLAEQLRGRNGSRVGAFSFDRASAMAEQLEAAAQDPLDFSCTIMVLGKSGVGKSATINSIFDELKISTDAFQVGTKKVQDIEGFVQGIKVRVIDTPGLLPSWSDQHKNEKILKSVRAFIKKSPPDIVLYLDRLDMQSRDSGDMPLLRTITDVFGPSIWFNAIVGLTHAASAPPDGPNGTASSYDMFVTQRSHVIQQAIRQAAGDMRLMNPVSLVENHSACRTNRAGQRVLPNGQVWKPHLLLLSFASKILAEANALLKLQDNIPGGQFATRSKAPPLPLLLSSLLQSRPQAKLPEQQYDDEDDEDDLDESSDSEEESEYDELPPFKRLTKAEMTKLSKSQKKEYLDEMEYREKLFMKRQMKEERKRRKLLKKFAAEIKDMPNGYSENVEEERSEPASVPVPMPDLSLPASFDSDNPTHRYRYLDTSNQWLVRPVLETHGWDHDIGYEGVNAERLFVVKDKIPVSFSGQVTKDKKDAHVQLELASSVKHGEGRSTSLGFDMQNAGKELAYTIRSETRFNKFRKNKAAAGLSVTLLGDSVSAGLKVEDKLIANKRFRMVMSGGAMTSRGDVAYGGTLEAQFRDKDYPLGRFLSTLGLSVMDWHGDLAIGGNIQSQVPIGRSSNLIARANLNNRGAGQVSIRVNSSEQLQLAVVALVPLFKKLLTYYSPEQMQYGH

Biological target: T1, hexa-histidine-tagged, 35S-methionine-labeled chloroplast envelope quinone oxidoreductase homologue (ceQORH-(His)6) (UniProt Q9SV68)
T1 sequence (chain, 35S-methionine-labeled): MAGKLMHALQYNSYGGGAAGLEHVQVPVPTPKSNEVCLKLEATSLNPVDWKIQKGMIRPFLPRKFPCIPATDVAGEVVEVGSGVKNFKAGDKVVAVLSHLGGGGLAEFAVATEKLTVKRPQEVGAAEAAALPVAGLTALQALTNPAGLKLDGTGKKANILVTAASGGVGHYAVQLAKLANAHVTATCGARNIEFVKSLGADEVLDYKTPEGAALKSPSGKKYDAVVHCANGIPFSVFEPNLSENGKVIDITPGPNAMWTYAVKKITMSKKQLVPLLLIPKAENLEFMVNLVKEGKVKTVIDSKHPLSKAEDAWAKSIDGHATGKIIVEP
Experiment: pull-down; purified 35S-ceQORH-(His)6 incubated 15 min with isolated Arabidopsis chloroplasts at 0.1 mM Mg-GTP and 0.1 mM Mg-ATP; envelope membranes detergent-solubilized (2% Triton X100, 300 mM NaCl, 20 mM imidazole); import intermediate-associated proteins purified by Ni-NTA chromatography, separated by 1D or 2D SDS-PAGE, Coomassie-stained and identified by protein sequencing; only the target purified

Substance | binding
HSP93-V (from UniProt Q9FI56 39-929) | binds
TOC120 (from UniProt Q9LUS2 1-1089) | binds
